Measurements from the supplement of paper PMC10849652.
The list shows a part of the results.

By UniProt entry, the sequences of proteins in these tests, tags left out. Where a name states a change or a piece, a line headed by the entry shows the natural chain unless it says otherwise.
UniProt Q5T6F2: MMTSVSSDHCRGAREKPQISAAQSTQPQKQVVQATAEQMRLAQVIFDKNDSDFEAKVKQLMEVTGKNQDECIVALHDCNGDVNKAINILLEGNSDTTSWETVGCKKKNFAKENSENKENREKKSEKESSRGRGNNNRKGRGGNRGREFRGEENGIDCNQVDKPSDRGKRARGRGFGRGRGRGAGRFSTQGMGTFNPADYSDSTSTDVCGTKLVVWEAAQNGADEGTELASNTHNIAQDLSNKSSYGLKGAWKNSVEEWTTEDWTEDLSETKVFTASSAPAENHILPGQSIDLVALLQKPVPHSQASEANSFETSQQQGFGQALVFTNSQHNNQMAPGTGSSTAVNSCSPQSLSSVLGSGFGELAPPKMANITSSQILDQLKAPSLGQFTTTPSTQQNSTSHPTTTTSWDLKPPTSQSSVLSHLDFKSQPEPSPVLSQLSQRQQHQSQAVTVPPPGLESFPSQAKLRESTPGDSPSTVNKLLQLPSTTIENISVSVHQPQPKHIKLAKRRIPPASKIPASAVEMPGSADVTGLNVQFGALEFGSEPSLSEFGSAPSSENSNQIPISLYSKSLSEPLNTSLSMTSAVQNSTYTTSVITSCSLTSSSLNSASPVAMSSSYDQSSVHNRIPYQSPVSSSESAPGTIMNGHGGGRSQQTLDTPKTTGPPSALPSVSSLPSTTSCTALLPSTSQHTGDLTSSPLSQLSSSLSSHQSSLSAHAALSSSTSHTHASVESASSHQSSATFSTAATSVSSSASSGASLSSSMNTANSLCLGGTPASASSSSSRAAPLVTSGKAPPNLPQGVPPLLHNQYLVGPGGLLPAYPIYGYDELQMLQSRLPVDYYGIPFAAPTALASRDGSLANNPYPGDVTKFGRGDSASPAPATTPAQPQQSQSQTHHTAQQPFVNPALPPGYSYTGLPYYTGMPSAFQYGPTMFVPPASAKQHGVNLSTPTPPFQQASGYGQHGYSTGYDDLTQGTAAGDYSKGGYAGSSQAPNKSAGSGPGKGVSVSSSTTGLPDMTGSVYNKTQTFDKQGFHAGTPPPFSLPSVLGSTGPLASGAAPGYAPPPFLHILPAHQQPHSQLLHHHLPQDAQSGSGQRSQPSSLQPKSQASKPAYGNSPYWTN
UniProt Q8NBS9: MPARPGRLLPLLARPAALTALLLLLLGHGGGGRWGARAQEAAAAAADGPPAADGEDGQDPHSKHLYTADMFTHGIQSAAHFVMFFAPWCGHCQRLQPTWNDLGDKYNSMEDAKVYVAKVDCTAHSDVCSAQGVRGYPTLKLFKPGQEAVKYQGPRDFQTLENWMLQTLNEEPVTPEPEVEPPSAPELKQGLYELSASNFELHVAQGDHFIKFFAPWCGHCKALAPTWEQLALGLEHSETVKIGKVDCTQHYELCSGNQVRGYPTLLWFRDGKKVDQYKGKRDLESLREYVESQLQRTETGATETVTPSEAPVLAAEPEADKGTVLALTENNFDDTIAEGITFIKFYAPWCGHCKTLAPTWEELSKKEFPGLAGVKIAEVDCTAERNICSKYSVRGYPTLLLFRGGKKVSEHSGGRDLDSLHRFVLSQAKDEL
UniProt Q9UBT2: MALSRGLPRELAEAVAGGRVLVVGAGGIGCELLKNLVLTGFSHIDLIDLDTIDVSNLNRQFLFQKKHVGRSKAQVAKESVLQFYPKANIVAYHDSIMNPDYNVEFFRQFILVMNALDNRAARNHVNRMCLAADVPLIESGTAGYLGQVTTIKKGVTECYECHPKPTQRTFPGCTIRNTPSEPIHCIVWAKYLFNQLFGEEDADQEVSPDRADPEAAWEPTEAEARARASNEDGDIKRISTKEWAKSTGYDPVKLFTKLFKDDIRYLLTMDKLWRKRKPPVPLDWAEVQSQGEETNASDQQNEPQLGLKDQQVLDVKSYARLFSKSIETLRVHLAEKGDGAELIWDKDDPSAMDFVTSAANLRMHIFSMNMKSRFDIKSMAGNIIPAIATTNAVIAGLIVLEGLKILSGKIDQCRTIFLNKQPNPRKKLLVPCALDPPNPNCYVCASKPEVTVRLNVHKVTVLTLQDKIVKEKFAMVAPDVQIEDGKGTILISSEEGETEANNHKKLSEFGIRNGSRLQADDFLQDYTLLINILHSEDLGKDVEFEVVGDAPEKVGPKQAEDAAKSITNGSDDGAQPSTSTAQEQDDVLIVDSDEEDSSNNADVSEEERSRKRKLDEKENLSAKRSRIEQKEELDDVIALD
UniProt P07437, whole entry, looked up: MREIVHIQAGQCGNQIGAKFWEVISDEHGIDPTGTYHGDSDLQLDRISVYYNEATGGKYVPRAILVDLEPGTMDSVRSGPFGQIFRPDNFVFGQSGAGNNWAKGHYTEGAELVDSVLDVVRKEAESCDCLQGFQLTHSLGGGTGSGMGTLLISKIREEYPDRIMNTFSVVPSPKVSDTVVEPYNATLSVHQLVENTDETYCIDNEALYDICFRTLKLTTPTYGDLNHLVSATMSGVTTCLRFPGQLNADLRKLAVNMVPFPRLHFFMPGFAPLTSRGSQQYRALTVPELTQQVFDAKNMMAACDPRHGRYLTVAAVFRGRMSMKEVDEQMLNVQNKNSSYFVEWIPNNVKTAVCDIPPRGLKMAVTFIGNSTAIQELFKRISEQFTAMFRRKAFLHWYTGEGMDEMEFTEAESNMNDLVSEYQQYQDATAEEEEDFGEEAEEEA
UniProt O14530: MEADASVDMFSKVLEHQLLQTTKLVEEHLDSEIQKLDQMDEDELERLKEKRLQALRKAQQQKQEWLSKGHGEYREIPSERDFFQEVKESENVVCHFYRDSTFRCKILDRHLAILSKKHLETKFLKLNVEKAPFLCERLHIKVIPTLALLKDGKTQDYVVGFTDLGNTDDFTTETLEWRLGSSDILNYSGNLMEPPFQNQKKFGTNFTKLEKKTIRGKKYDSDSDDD
UniProt P04818: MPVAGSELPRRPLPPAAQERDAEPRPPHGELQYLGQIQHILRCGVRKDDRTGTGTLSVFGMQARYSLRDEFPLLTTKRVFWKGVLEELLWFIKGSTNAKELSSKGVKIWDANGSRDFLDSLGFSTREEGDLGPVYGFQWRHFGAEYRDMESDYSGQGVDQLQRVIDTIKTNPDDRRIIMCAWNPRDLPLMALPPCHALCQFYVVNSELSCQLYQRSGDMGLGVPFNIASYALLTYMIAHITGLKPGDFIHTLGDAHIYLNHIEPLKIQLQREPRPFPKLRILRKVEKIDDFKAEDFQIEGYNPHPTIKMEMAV
UniProt Q9H832: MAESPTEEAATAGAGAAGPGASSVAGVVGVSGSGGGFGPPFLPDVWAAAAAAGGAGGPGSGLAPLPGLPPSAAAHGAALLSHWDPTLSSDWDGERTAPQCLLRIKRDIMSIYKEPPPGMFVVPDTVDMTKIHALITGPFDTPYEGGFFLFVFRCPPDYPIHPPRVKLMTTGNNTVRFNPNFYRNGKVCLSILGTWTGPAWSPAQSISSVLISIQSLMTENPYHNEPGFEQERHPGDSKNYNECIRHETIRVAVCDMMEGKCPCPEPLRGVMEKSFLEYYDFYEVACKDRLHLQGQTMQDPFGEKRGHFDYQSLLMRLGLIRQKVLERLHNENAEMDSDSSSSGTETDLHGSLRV
UniProt Q3KQV9: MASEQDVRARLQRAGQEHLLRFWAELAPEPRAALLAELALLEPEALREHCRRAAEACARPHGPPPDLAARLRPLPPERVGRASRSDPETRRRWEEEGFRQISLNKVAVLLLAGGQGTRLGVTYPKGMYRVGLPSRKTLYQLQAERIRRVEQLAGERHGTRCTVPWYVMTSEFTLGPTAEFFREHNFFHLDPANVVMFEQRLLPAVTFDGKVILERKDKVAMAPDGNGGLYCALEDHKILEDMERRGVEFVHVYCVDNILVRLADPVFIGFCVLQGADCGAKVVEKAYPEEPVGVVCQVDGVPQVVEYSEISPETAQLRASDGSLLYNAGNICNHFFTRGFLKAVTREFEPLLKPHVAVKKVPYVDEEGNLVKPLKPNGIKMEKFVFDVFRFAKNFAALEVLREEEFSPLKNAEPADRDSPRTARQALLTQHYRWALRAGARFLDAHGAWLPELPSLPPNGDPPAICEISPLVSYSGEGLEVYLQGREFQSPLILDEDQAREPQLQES
UniProt Q9NUQ3: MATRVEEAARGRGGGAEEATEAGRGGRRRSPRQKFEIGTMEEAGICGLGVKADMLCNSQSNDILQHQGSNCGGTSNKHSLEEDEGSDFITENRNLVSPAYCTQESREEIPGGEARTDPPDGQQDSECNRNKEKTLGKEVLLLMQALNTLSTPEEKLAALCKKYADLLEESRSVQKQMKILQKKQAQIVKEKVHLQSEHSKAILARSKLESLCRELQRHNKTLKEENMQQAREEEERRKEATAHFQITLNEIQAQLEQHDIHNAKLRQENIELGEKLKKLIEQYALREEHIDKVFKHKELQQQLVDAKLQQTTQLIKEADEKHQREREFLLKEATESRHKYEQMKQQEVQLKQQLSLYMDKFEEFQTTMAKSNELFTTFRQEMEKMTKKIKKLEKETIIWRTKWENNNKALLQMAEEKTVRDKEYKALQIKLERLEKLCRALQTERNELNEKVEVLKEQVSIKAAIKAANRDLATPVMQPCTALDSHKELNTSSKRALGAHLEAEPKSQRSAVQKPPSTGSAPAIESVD
UniProt P49459, whole entry, looked up: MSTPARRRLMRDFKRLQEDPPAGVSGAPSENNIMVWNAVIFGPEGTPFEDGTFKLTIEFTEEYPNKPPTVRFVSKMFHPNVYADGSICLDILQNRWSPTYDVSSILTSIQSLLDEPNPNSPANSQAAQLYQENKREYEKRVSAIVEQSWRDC
UniProt Q6IPR3: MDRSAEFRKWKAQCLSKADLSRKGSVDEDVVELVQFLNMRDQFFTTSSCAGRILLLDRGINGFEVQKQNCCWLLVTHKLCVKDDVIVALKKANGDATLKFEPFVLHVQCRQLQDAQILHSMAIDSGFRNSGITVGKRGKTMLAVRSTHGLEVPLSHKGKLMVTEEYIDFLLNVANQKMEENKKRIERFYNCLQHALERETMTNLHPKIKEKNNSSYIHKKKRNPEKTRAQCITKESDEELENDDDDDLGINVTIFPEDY
UniProt Q6IBS0: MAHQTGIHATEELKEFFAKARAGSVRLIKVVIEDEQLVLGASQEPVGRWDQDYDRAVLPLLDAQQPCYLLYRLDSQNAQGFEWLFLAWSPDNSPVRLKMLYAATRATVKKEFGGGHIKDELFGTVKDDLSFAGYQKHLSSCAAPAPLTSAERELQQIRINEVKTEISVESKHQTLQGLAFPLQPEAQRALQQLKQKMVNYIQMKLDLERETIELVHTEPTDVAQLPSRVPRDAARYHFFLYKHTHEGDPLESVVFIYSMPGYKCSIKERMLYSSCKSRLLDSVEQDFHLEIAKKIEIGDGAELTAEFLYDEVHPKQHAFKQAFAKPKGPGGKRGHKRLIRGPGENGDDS
UniProt P63279, whole entry, looked up: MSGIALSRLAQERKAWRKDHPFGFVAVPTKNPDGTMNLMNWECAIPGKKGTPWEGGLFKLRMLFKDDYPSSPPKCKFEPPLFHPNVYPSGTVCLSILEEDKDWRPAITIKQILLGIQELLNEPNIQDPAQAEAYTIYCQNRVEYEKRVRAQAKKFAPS
UniProt Q5JXB2: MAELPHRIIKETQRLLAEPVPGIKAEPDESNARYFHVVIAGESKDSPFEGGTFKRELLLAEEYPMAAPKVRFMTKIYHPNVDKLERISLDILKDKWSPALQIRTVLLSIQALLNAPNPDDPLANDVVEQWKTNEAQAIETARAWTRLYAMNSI
UniProt Q13509, whole entry, looked up: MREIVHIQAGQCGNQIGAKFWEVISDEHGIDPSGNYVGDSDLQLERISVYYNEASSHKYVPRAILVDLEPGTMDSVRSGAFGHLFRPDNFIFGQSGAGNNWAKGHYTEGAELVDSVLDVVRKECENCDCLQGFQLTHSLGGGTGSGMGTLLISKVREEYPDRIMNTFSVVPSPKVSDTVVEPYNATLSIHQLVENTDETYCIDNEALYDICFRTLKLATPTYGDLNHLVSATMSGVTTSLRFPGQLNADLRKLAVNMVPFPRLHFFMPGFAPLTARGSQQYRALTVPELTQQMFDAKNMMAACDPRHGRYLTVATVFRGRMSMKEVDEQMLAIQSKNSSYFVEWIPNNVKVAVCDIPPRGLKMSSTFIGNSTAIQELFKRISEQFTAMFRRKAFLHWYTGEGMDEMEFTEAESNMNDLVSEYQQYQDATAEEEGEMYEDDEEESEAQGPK

Tests used:
Experiment in all cases: log2 fold change, soluble protein after heating vs DMSO (PISA); higher = thermal stabilisation; K562 cells, 10 uM, 30 min; active = over 0.2 and 3.5 SD of the protein, either way, in both replicates (recomputed)
[1] = compound: CC[C@@H]1C(=O)N(C)c2cnc(Nc3ccc(C(=O)NC4CCN(C)CC4)cc3OC)nc2N1C1CCCC1
Outline: (§1)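 K562 cells (2×10^6 cells/mL) were treated with 10 μM compound for 30 min, and aliquots were heated for 3 min over 48°C-58°C. Pooled aliquots were extracted in PBS with 0.5% NP-40 at 4°C, and the supernatant after 21,000xg for 90 min was measured by TMTpro 16plex LC-MS/MS with channel sums equalised. Reported thermal stability, relative to control samples and from duplicates, is a log2 fold change.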

volasertib = compound: CC[C@@H]1C(=O)N(C)c2cnc(Nc3ccc(C(=O)N[C@H]4CC[C@H](N5CCN(CC6CC6)CC5)CC4)cc3OC)nc2N1C(C)C [volasertib]
Outline: as §1

[2] = compound: CC[C@H](C)N1C=C(C2=C(C=C(C=C21)C3=CN=C(C=C3)N4CCNCC4)C(=O)NCC5=C(C=C(NC5=O)C)C)C
Outline: as §1

epoxomicin = compound: CC[C@H](C)[C@@H](C(=O)N[C@@H]([C@@H](C)O)C(=O)N[C@@H](CC(C)C)C(=O)[C@]1(CO1)C)NC(=O)[C@H]([C@@H](C)CC)N(C)C(=O)C [epoxomicin]
Outline: as §1

[3] = compound: CCn1c(C(=O)N(C2CC2)C2CC2)cc2c3c(ncn3C)c(Nc3cc(C)n(C)n3)nc21
Outline: as §1

[4] = compound: CCn1cc(-c2ccnc3[nH]c(-c4cccc(CN(C)C)c4)cc23)c(-c2ccc(NC(=O)N(C)C)cc2)n1
Outline: as §1

[5] = compound: CN(C)CC(=O)Nc1ccc2[nH]c(=O)c3ccccc3c2c1
Outline: as §1

rosiglitazone = compound: CN(CCOC1=CC=C(C=C1)C[C@H]2C(=O)NC(=O)S2)C3=CC=CC=N3 (racemic) [rosiglitazone]
Outline: as §1

[6] = compound: CN1C2=C(C3=C1C(=O)N(N=C3)CC4=CC(=CC=C4)N)SC(=C2)S(=O)C
Outline: as §1

[7] = compound: CN1CCC(CNc2ccc3ncc(-c4cccc(OC(F)(F)F)c4)n3n2)CC1
Outline: as §1

saracatinib = compound: CN1CCN(CCOc2cc(OC3CCOCC3)c3c(Nc4c(Cl)ccc5c4OCO5)ncnc3c2)CC1 [saracatinib]
Outline: as §1

sotrastaurin = compound: CN1CCN(c2nc(C3=C(c4c[nH]c5ccccc45)C(=O)NC3=O)c3ccccc3n2)CC1 [sotrastaurin]
Outline: as §1

alvocidib = compound: CN1CC[C@H](c2c(O)cc(O)c3c(=O)cc(-c4ccccc4Cl)oc23)[C@H](O)C1 [alvocidib]
Outline: as §1

Tubastatin A = compound: CN1CCc2c(c3ccccc3n2Cc2ccc(C(=O)NO)cc2)C1 [Tubastatin A]
Outline: as §1

[8] = compound: CNC(=O)C1=CC=CC=C1NC2=NC(=NC=C2Cl)NC3=C(C=C(C=C3)N4CCOCC4)OC
Outline: as §1

defactinib = compound: CNC(=O)c1ccc(Nc2ncc(C(F)(F)F)c(NCc3nccnc3N(C)S(C)(=O)=O)n2)cc1 [defactinib]
Outline: as §1

rucaparib = compound: CNCc1ccc(-c2[nH]c3cc(F)cc4c3c2CCNC4=O)cc1 [rucaparib]
Outline: as §1

[9] = compound: CNc1nc(-c2ccc3c(N)n[nH]c3c2)cc(N2C[C@@H](C(=O)NC3CCCCC3)CC[C@H]2C)n1
Outline: as §1

encorafenib = compound: COC(=O)N[C@@H](C)CNc1nccc(-c2cn(C(C)C)nc2-c2cc(Cl)cc(NS(C)(=O)=O)c2F)n1 [encorafenib]
Outline: as §1

[10] = compound: COC(=O)[C@H](CCSC)NC(=O)C1=C(C=C(C=C1)NC[C@H](CS)N)C2=CC=CC=C2
Outline: as §1

Measured: log2 fold change

UBAP2 (UniProt Q5T6F2)
inactive: [1] 0 | volasertib 0.016 | [2] -0.033 | epoxomicin 0.021 | [3] 0.009 | [4] 0.028 | [5] 0.001 | rosiglitazone -0.005 | [6] -0.039 | [7] -0.021 | saracatinib 0.005 | sotrastaurin 0.04 | alvocidib 0.005 | Tubastatin A -0.022 | [8] -0.029 | defactinib -0.007 | rucaparib -0.016 | [9] -0.044 | encorafenib -0.038 | [10] 0.022

TXNDC5 (UniProt Q8NBS9)
inactive: [1] -0.023 | volasertib 0.008 | [2] 0.006 | epoxomicin 0.105 | [3] 0.028 | [4] -0.002 | [5] 0.009 | rosiglitazone 0 | [6] -0.037 | [7] 0.035 | saracatinib 0.007 | sotrastaurin 0.003 | alvocidib -0.006 | Tubastatin A -0.003 | [8] 0.014 | defactinib -0.014 | rucaparib -0.022 | [9] -0.034 | encorafenib 0.011 | [10] 0.003

UBA2 (UniProt Q9UBT2)
inactive: [1] -0.015 | volasertib -0.017 | [2] -0.003 | epoxomicin 0.048 | [3] 0.004 | [4] -0.047 | [5] 0.009 | rosiglitazone 0.026 | [6] -0.074 | [7] 0.077 | saracatinib 0.002 | sotrastaurin -0.018 | alvocidib -0.117 | Tubastatin A 0.001 | [8] 0.087 | defactinib -0.066 | rucaparib -0.063 | [9] -0.04 | encorafenib 0.011 | [10] -0.008

TUBB (UniProt P07437)
inactive: [1] -0.025 | volasertib 0.151 | [2] 0.011 | epoxomicin 0.017 | [3] 0.005 | [4] 0.016 | [5] -0.003 | rosiglitazone 0.022 | [6] -0.062 | [7] -0.126 | saracatinib -0.033 | sotrastaurin 0.038 | alvocidib -0.108 | Tubastatin A -0.011 | [8] -0.057 | defactinib 0.004 | rucaparib -0.022 | [9] 0.02 | encorafenib -0.007 | [10] 0.006

TXNDC9 (UniProt O14530)
inactive: [1] -0.003 | volasertib 0.148 | [2] 0.056 | epoxomicin 0.021 | [3] -0.01 | [4] -0.024 | [5] -0.004 | rosiglitazone 0.019 | [6] 0.003 | [7] -0.002 | saracatinib -0.026 | sotrastaurin -0.045 | alvocidib -0.009 | Tubastatin A 0.082 | [8] 0.041 | defactinib -0.029 | rucaparib -0.015 | [9] -0.008 | encorafenib 0.009 | [10] 0.038

TYMS (UniProt P04818)
inactive: [1] -0.066 | volasertib -0.053 | [2] 0.036 | epoxomicin 0.054 | [3] 0.012 | [4] 0.009 | [5] 0.056 | rosiglitazone 0.004 | [6] -0.014 | [7] -0.01 | saracatinib 0.015 | sotrastaurin 0 | alvocidib -0.038 | Tubastatin A 0.079 | [8] -0.014 | defactinib -0.13 | rucaparib 0.087 | [9] -0.031 | encorafenib -0.005 | [10] -0.134

UBE2Z (UniProt Q9H832)
inactive: [1] -0.014 | volasertib -0.027 | [2] 0.012 | epoxomicin 0.052 | [3] 0 | [4] -0.03 | [5] 0.018 | rosiglitazone 0.018 | [6] -0.044 | [7] 0.022 | saracatinib 0.012 | sotrastaurin -0.024 | alvocidib -0.058 | Tubastatin A 0.017 | [8] 0.012 | defactinib -0.042 | rucaparib 0.009 | [9] -0.052 | encorafenib 0.003 | [10] 0.012

UAP1L1 (UniProt Q3KQV9)
inactive: [1] -0.044 | volasertib 0.025 | [2] 0.029 | epoxomicin 0.019 | [3] -0.018 | [4] 0.062 | [5] -0.037 | rosiglitazone 0.039 | [6] -0.06 | [7] -0.034 | saracatinib 0.007 | sotrastaurin 0.012 | alvocidib 0.05 | Tubastatin A -0.085 | [8] -0.061 | defactinib -0.026 | rucaparib 0.087 | [9] 0.018 | encorafenib -0.015 | [10] 0.052

TXLNG (UniProt Q9NUQ3)
inactive: [1] 0.02 | volasertib 0.022 | [2] 0.039 | epoxomicin 0.017 | [3] 0.006 | [4] -0.078 | [5] -0.003 | rosiglitazone 0.027 | [6] -0.054 | [7] 0.077 | saracatinib -0.036 | sotrastaurin -0.041 | alvocidib 0.011 | Tubastatin A -0.021 | [8] -0.027 | defactinib -0.024 | rucaparib -0.024 | [9] -0.028 | encorafenib 0.001 | [10] -0.006

UBE2A (UniProt P49459)
inactive: [1] -0.107 | volasertib -0.074 | [2] 0.1 | epoxomicin 0.156 | [3] -0.033 | [4] -0.075 | [5] 0.046 | rosiglitazone 0.005 | [6] -0.181 | [7] -0.063 | saracatinib -0.028 | sotrastaurin 0.062 | alvocidib -0.05 | Tubastatin A 0 | [8] -0.003 | defactinib 0.01 | rucaparib -0.033 | [9] 0.028 | encorafenib -0.112 | [10] -0.069

TYW3 (UniProt Q6IPR3)
inactive: [1] 0.084 | volasertib 0.176 | [2] -0.068 | epoxomicin -0.031 | [3] 0.022 | [4] 0.008 | [5] -0.021 | rosiglitazone -0.039 | [6] 0.146 | [7] -0.022 | saracatinib 0.054 | sotrastaurin 0.036 | alvocidib 0.054 | Tubastatin A -0.027 | [8] -0.044 | defactinib 0.057 | rucaparib 0.114 | [9] -0.014 | encorafenib 0.012 | [10] -0.026

TWF2 (UniProt Q6IBS0)
inactive: [1] 0.045 | volasertib 0.052 | [2] 0.001 | epoxomicin 0.065 | [3] -0.024 | [4] -0.041 | [5] -0.023 | rosiglitazone 0.01 | [6] -0.036 | [7] 0.037 | saracatinib 0.008 | sotrastaurin -0.031 | alvocidib -0.059 | Tubastatin A -0.017 | [8] 0.043 | defactinib -0.014 | rucaparib -0.055 | [9] 0.006 | encorafenib 0 | [10] 0.04

TTN isoform 12 (UniProt Q8WZ42)
inactive: [1] 0.056 | volasertib 0.055 | [2] -0.114 | epoxomicin 0.016 | [3] -0.038 | [4] 0.01 | [5] -0.084 | rosiglitazone -0.011 | [6] 0.088 | [7] -0.244 | saracatinib -0.139 | sotrastaurin 0.103 | alvocidib 0.1 | Tubastatin A 0.054 | [8] -0.039 | defactinib 0.03 | rucaparib 0.061 | [9] -0.091 | encorafenib -0.035 | [10] 0.076

Quoted from the entries so far (2 entries):
TWF2 (UniProt Q6IBS0)
inactive: [1] 0.045 | volasertib 0.052 | [2] 0.001 | epoxomicin 0.065 | [3] -0.024 | [4] -0.041 | [5] -0.023 | rosiglitazone 0.01 | [6] -0.036 | [7] 0.037 | saracatinib 0.008 | sotrastaurin -0.031 | alvocidib -0.059 | Tubastatin A -0.017 | [8] 0.043 | defactinib -0.014 | rucaparib -0.055 | [9] 0.006 | encorafenib 0 | [10] 0.04

TTN isoform 12 (UniProt Q8WZ42)
inactive: [1] 0.056 | volasertib 0.055 | [2] -0.114 | epoxomicin 0.016 | [3] -0.038 | [4] 0.01 | [5] -0.084 | rosiglitazone -0.011 | [6] 0.088 | [7] -0.244 | saracatinib -0.139 | sotrastaurin 0.103 | alvocidib 0.1 | Tubastatin A 0.054 | [8] -0.039 | defactinib 0.03 | rucaparib 0.061 | [9] -0.091 | encorafenib -0.035 | [10] 0.076

Following part

UBE2I (UniProt P63279)
inactive: [1] -0.083 | volasertib -0.01 | [2] 0.053 | epoxomicin 0.04 | [3] 0.028 | [4] -0.026 | [5] -0.008 | rosiglitazone 0.022 | [6] -0.047 | [7] -0.07 | saracatinib 0 | sotrastaurin 0.017 | alvocidib -0.086 | Tubastatin A -0.044 | [8] -0.021 | defactinib 0.006 | rucaparib 0.019 | [9] 0.029 | encorafenib -0.014 | [10] -0.017

UBE2NL (UniProt Q5JXB2)
inactive: [1] -0.038 | volasertib 0.102 | [2] 0.033 | epoxomicin 0.11 | [3] 0.052 | [4] -0.022 | [5] -0.001 | rosiglitazone 0.022 | [6] -0.068 | [7] 0.009 | saracatinib -0.018 | sotrastaurin -0.073 | alvocidib -0.037 | Tubastatin A 0 | [8] -0.008 | defactinib -0.006 | rucaparib -0.066 | [9] 0.026 | encorafenib 0.007 | [10] -0.046

TUBB3 (UniProt Q13509)
inactive: [1] -0.032 | volasertib 0.045 | [2] -0.001 | epoxomicin 0.042 | [3] -0.009 | [4] -0.122 | [5] 0.003 | rosiglitazone -0.007 | [6] -0.073 | [7] -0.128 | saracatinib 0.062 | sotrastaurin 0.012 | alvocidib -0.039 | Tubastatin A -0.061 | [8] -0.088 | defactinib -0.025 | rucaparib 0.036 | [9] 0.021 | encorafenib -0.005 | [10] 0.016
